Values quoted from earlier work in patent US7563570B2, “Method of determining a chemotherapeutic regimen for non small cell lung cancer based on BRCA1 expression” (Pangaea Biotech, priority 2004, dated 2009).
Some entries share one result that the patent states for a list of compounds.

Tested on: HCC1937 breast cancer cell line
Settings: HCC1937, BRCA1 reconstituted vs BRCA1-negative; cited from earlier work

SMILES: CC(=O)O[C@H]1C(=O)[C@@]2(C)[C@H]([C@H](OC(=O)c3ccccc3)[C@]3(O)C[C@H](OC(=O)[C@H](O)[C@@H](NC(=O)c4ccccc4)c4ccccc4)C(C)=C1C3(C)C)[C@]1(OC(C)=O)CO[C@@H]1C[C@@H]2O [paclitaxel]
- Increase in sensitivity on reconstitution of wild-type BRCA1: 1000-10,000 fold

SMILES: CCC1=C[C@@H]2CN(C1)Cc1c([nH]c3ccccc13)[C@@](C(=O)OC)(c1cc3c(cc1OC)N(C)[C@H]1[C@@](O)(C(=O)OC)[C@H](OC(C)=O)[C@]4(CC)C=CCN5CC[C@]31[C@@H]54)C2 [vinorelbine]
- Increase in sensitivity on reconstitution of wild-type BRCA1: 1000-10,000 fold
